Test results: publication PMC7499972
No constants are given. Whether binding was seen depends on the method and setting. In cells and extracts the contact can be indirect. Some entries that bind do so weakly or less than the wild type. Tags and fused reporters may be left off the sequences shown.

Chains of the proteins cited; added tags and fusions are not shown.
UniProt Q92731: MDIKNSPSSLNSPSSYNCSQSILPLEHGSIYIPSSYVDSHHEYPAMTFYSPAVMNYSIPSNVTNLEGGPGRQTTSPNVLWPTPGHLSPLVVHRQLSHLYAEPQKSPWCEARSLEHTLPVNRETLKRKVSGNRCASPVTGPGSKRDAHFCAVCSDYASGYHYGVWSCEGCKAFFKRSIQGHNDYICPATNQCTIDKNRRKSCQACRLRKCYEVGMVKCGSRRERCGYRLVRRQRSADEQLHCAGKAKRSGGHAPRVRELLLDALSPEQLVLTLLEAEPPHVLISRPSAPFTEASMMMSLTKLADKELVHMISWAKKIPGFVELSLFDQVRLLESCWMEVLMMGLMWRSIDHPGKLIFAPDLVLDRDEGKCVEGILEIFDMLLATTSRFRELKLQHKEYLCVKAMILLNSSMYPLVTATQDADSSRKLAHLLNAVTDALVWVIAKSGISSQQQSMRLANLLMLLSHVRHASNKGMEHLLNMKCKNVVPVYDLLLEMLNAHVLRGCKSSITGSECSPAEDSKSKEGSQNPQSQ

Biological target: T1, Flag-CLPTM1L (cleft lip and palate transmembrane 1-like), wild type, from pCMV-CLPTM1L (human) (UniProt Q96KA5)
T1 sequence: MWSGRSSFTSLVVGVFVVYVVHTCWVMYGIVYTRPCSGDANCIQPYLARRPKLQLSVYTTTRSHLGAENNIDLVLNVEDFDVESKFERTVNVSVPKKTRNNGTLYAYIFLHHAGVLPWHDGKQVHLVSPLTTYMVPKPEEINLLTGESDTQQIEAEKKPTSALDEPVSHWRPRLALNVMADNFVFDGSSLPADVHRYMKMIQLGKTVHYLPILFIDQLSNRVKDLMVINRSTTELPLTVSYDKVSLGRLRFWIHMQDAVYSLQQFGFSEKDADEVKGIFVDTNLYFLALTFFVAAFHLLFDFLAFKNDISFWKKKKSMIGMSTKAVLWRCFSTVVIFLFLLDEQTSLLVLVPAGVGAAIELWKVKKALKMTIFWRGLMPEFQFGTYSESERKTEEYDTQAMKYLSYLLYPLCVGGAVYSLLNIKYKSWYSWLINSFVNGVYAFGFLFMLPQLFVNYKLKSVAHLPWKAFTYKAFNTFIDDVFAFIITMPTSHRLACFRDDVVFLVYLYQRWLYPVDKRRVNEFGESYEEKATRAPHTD
Experiment: co-IP; A549 cells transfected and exposed to 4 Gy IR; lysis buffer 50 mmol/L Tris-HCl pH 8.0, 100 mmol/L NaCl, 1% Nonidet P-40; anti-ERβ or anti-Flag antibody with protein G agarose beads; washed six times; western blot

For “Estrogen receptor β (ERβ) in A549 cells (from UniProt Q92731 1-530)”, the binding was “binds”.
